Data reported in patent US20070271623A1.
No constants are given. Whether binding was seen depends on the method and setting. Some entries that bind do so weakly or less than the wild type. For some of these results: Where a sequence is shown, tags or fusion partners need not be part of it.

Amino acid sequences for entries named in this document (tags omitted). A change or cut given only in a name is not applied to a line headed by its entry. Residues count along the entry.
UniProt Q8S8P5, residues 332-519: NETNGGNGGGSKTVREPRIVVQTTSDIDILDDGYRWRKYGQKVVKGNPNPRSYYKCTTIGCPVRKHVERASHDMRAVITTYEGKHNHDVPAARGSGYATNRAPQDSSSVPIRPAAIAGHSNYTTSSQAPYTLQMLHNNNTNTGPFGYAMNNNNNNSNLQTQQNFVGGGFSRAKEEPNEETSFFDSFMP
UniProt P04386: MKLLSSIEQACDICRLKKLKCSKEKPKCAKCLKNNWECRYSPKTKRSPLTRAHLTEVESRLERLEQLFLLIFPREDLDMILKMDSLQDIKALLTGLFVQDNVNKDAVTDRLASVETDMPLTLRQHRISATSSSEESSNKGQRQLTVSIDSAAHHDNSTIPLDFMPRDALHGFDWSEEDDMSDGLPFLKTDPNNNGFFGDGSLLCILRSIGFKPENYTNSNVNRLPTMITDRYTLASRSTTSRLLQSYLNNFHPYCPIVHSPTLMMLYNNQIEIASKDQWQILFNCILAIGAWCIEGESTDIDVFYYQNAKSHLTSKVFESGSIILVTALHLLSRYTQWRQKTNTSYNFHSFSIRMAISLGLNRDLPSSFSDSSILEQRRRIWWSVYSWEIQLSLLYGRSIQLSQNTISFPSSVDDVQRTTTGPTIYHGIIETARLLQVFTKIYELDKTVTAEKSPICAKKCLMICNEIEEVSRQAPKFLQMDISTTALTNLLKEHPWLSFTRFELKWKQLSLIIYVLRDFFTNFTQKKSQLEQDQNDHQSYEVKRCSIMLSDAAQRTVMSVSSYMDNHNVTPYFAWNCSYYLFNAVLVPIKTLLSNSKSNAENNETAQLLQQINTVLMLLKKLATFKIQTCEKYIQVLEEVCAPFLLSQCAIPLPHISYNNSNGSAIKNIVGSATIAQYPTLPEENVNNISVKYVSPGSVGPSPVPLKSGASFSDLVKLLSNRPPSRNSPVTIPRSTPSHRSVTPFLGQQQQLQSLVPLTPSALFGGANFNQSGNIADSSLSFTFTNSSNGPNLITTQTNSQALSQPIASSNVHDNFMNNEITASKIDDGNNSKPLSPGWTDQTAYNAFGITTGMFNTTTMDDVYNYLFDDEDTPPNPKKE
UniProt Q39024: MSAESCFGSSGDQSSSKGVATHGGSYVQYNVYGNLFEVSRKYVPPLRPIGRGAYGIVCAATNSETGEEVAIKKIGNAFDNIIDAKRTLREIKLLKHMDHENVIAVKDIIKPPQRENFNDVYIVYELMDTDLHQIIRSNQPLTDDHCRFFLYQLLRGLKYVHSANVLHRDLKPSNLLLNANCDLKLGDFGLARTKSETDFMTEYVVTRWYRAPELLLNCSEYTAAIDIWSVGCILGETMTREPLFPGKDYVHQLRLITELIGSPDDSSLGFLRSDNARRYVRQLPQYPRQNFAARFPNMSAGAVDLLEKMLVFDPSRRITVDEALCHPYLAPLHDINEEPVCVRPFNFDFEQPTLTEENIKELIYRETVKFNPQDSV

Experiments:
[1] = molecular target: WRKY33 as prey (AD fusion) (Arabidopsis thaliana) (UniProt Q8S8P5); experiment: yeast two-hybrid assay
[2] = molecular target: MPK4 as bait (BD fusion) (Arabidopsis thaliana) (UniProt P04386+Q39024); experiment: yeast two-hybrid library screen

B1: N1-MKS1, N-terminal truncated form (amino acids 55-222), two-hybrid construct (protein, not shown: large carriers)
chain: DQPPPYIPREPVVIYAVSPKVVHATASEFMNVVQRLTGISSGVFLESGGGGDVSPAARLASTENASPRGGKEPAARDETVEINTAMEEAAEFGGYAPGILSPSPALLPTASTGIFSPMYHQGGMFSPAIPLGLFSPAGFMSPFRSPGFTSLVASPTFADFFSHIWDQD
binding [1]: binds

B2: C1-MKS1 truncation (amino acids 1-196), two-hybrid construct (protein, not shown: large carriers)
chain: MDPSEYFAGGNPSDQQNQKRQLQICGPRPSPLSVHKDSHKIKKPPKHPAPPPNRDQPPPYIPREPVVIYAVSPKVVHATASEFMNVVQRLTGISSGVFLESGGGGDVSPAARLASTENASPRGGKEPAARDETVEINTAMEEAAEFGGYAPGILSPSPALLPTASTGIFSPMYHQGGMFSPAIPLGLFSPAGFMSP
binding [1]: binds

B3: C2-MKS1 truncation (amino acids 1-123), two-hybrid construct (protein, not shown: large carriers)
chain: MDPSEYFAGGNPSDQQNQKRQLQICGPRPSPLSVHKDSHKIKKPPKHPAPPPNRDQPPPYIPREPVVIYAVSPKVVHATASEFMNVVQRLTGISSGVFLESGGGGDVSPAARLASTENASPRG
binding [1]: binds

B4: MKS1 as interacting prey (AD fusion) (protein, not shown: large carriers)
chain: MDPSEYFAGGNPSDQQNQKRQLQICGPRPSPLSVHKDSHKIKKPPKHPAPPPNRDQPPPYIPREPVVIYAVSPKVVHATASEFMNVVQRLTGISSGVFLESGGGGDVSPAARLASTENASPRGGKEPAARDETVEINTAMEEAAEFGGYAPGILSPSPALLPTASTGIFSPMYHQGGMFSPAIPLGLFSPAGFMSPFRSPGFTSLVASPTFADFFSHIWDQD
binding [2]: binds
